PubChem BioAssay AID504774, Drosophila RNAi Screening Center | 2011

Screen: 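Knock-downs that shift viability of MMS-exposed cells relative to untreated ones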 (primary screen)
Cell system: Drosophila Kc167 cells
Reagents: long dsRNA against Drosophila genes, about 0.25 µg dsRNA per well
Timing: about 6 days: 3 days knock-down, then 3 days with or without MMS
Treatment: methyl methanesulphonate 0.004% (w/v) for 3 days after knock-down
Detection: 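Viability in wells given MMS, read as ATP luminescence, normalised by quantiles plate by plate and averaged across replicates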
Scale: mean viability with MMS and viability with MMS: higher = more surviving cells after MMS
The deposit covers about 23,000 reagents; below is an unselected part of those with a known target gene and a result. 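Values are quantile-normalised luminescence on an arbitrary scale; higher means more cells surviving MMS.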 The numbers tell different reagents against one gene apart. Names joined by + are all predicted targets of the reagent.

no.	target gene	reagent no.	mean viability with MMS	viability with MMS, replicate 1	viability with MMS, replicate 2
1	CG33287	1	3.49e6	3.95e6	3.99e6
2	Sfmbt (Scm-related gene containing four mbt domains)	1	3.54e6	3.93e6	4.12e6
3	pasha (partner of drosha)	1	3.50e6	4.04e6	3.90e6
4	CG14182	1	3.53e6	3.90e6	4.08e6
5	CG12971	1	3.63e6	4.13e6	4.09e6
6	hec (hector)	1	3.67e6	4.15e6	4.12e6
7	Bre1	1	3.48e6	3.91e6	3.97e6
8	CG1737	1	1.80e6	4.07e6	3.89e6
9	CG34284	1	3.61e6	4.14e6	4.03e6
10	unc-13	1	3.48e6	3.99e6	3.92e6
11	unc-13	2	3.54e6	4.07e6	3.96e6
12	unc-13	3	3.60e6	4.07e6	4.08e6
13	Tis11 (Tis11 zinc finger protein)	1	2.60e6	3.72e6	3.45e6
14	Tis11 (Tis11 zinc finger protein)	2	3.77e6	4.30e6	4.23e6
15	TfIIA-S-2	1	3.67e6	4.17e6	4.13e6
16	Ipp (Inositol polyphosphate 1-phosphatase)	1	3.53e6	3.64e6	4.37e6
17	CG13438	1	3.50e6	4.01e6	3.93e6
18	CG3397	1	3.71e6	4.20e6	4.23e6
19	sinah (sina homologue)	1	3.49e6	3.95e6	3.95e6
20	sinah (sina homologue)	2	3.33e6	3.88e6	3.84e6
21	Andorra	1	3.63e6	4.09e6	4.13e6
22	CG16800	1	3.66e6	4.15e6	4.09e6
23	Gs2 (Glutamine synthetase 2)	1	3.55e6	4.02e6	4.03e6
24	soti (scotti)	1	3.46e6	3.89e6	3.92e6
25	CG11069	1	3.53e6	4.09e6	3.92e6
26	Cyp305a1 (Cytochrome P450 305a1)	1	3.79e6	4.30e6	4.17e6
27	CG33269	1	3.49e6	3.87e6	4.04e6
28	Ars2 (Arsenic resistance protein 2)	1	3.06e6	3.56e6	2.82e6
29	CG10710	1	3.44e6	3.81e6	3.99e6
30	GluRIIB (Glutamate receptor IIB)	1	3.53e6	3.95e6	4.04e6
31	mol (moladietz)	1	3.31e6	3.78e6	3.65e6
32	mol (moladietz)	2	3.50e6	4.13e6	3.79e6
33	mol (moladietz)	3	3.73e6	4.11e6	4.25e6
34	CG6329	1	3.67e6	4.17e6	4.16e6
35	Girdin	1	3.44e6	3.91e6	3.90e6
36	Calr (Calreticulin)	1	3.41e6	3.86e6	3.91e6
37	CCHa1-R (CCHamide-1 receptor)	1	3.52e6	4.02e6	3.96e6
38	CCHa1-R (CCHamide-1 receptor)	2	3.63e6	4.14e6	4.06e6
39	CG15649	1	3.54e6	3.98e6	4.03e6
40	Mal-A4 (Maltase A4)	1	3.58e6	3.98e6	4.11e6
41	CG11247	1	3.81e6	4.18e6	4.32e6
42	CG11247	2	3.59e6	4.12e6	3.99e6
43	Mid1	1	3.41e6	3.90e6	3.87e6
44	Mid1	2	3.48e6	4.01e6	3.86e6
45	Mid1	3	3.32e6	3.81e6	3.62e6
46	Mid1	4	3.45e6	3.93e6	3.95e6
47	Mid1	5	3.43e6	3.92e6	3.92e6
48	CG4610	1	3.54e6	3.95e6	4.09e6
49	CG4610	2	3.46e6	3.90e6	4.00e6
50	CG11406	1	3.68e6	4.06e6	4.29e6
51	CG11406	2	3.53e6	3.90e6	4.10e6
52	CG13458	1	3.70e6	4.32e6	4.01e6
53	Psa (Puromycin sensitive aminopeptidase)	1	3.67e6	4.11e6	4.21e6
54	Bruce (BIR repeat containing ubiquitin-conjugating enzyme)	1	3.50e6	3.94e6	4.02e6
55	CG7362	1	3.80e6	4.04e6	4.10e6
56	cola + swif	1	3.60e6	4.01e6	4.12e6
57	cola + swif	2	3.51e6	4.08e6	3.89e6
58	CG32371	1	3.73e6	4.14e6	4.23e6
59	CG31897	1	3.51e6	4.01e6	3.94e6
60	Dph2 (Diphthamide biosynthesis 2)	1	3.63e6	4.12e6	4.15e6
61	CG12111	1	3.52e6	4.04e6	3.96e6
62	CG1172	1	3.65e6	4.17e6	4.08e6
63	CG1172	2	3.56e6	4.01e6	4.05e6
64	CG15393 (retired record)	1	3.48e6	3.98e6	3.89e6
65	Mettl14 (Methyltransferase like 14)	1	3.68e6	4.20e6	4.18e6
66	Cp15 (Chorion protein 15)	1	3.73e6	4.22e6	4.22e6
67	beat-Ia (beaten path Ia)	1	3.43e6	3.88e6	3.90e6
68	CG7766	1	3.38e6	4.12e6	4.24e6
69	beat-Ib (beaten path Ib)	1	3.61e6	3.99e6	4.19e6
70	lambdaTry	1	3.52e6	4.02e6	4.02e6
71	nan (nanchung)	1	3.68e6	4.16e6	4.13e6
72	CG10752	1	3.47e6	3.88e6	3.99e6
73	GckIII (Germinal centre kinase III)	1	3.39e6	3.92e6	3.73e6
74	CG34051	1	3.63e6	4.07e6	4.14e6
75	CG31244	1	3.62e6	3.98e6	4.21e6
76	spz6 (spatzle 6)	1	3.11e6	2.34e6	3.85e6
77	CG9988	1	3.55e6	4.10e6	3.94e6
78	dpr4 (defective proboscis extension response 4)	1	3.59e6	4.00e6	4.10e6
79	dpr4 (defective proboscis extension response 4)	2	3.61e6	4.05e6	4.10e6
80	Cyp6u1 (Cytochrome P450 6u1)	1	3.59e6	4.04e6	4.05e6
81	CG13044	1	3.39e6	3.77e6	3.87e6
82	mRpL52 (mitochondrial ribosomal protein L52)	1	3.52e6	3.97e6	4.02e6
83	CG3558	1	3.72e6	4.13e6	4.35e6
84	Hsp68 (Heat shock protein 68)	1	3.65e6	4.17e6	4.11e6
85	CG7582	1	3.40e6	3.83e6	3.82e6
86	Nubp1 (NUBP iron-sulfur cluster assembly factor 1)	1	3.42e6	3.81e6	3.90e6
87	Dhdds (Dehydrodolichyl diphosphate synthase subunit)	1	3.55e6	4.02e6	4.06e6
